The other results are listed elsewhere or left out.
Experiments:
Test in all cases: log2 fold change, soluble protein after heating vs DMSO (PISA); higher = thermal stabilisation; K562 lysate, 10 uM; active = over 0.2 and 3.5 SD of the protein, either way, in both replicates (recomputed)
erlotinib = compound: C#Cc1cccc(Nc2ncnc3cc(OCCOC)c(OCCOC)cc23)c1 [erlotinib]
Outline: (§1)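 The values are log-two fold changes in thermal stability compared with solvent controls and come from duplicates. They were obtained by TMTpro 16plex LC-MS/MS, with channel sums equalised, on the supernatant after 21,000xg for 90 min. That supernatant came from crude K562 extract at 1 mg/mL protein treated with 10 μM compound for 30 min, heated for 3 min across 48°C-58°C, pooled and brought to 0.5% NP-40 at 4°C.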

Protein sequences, listed by entry. Tags and fused reporters are not part of them. Lines headed by an entry give the natural chain unless they say otherwise; changes in a name come on top.
UniProt P58546, whole entry, looked up: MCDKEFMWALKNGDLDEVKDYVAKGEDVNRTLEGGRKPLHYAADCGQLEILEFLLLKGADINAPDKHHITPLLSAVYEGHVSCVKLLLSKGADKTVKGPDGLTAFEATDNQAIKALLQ
UniProt P98088: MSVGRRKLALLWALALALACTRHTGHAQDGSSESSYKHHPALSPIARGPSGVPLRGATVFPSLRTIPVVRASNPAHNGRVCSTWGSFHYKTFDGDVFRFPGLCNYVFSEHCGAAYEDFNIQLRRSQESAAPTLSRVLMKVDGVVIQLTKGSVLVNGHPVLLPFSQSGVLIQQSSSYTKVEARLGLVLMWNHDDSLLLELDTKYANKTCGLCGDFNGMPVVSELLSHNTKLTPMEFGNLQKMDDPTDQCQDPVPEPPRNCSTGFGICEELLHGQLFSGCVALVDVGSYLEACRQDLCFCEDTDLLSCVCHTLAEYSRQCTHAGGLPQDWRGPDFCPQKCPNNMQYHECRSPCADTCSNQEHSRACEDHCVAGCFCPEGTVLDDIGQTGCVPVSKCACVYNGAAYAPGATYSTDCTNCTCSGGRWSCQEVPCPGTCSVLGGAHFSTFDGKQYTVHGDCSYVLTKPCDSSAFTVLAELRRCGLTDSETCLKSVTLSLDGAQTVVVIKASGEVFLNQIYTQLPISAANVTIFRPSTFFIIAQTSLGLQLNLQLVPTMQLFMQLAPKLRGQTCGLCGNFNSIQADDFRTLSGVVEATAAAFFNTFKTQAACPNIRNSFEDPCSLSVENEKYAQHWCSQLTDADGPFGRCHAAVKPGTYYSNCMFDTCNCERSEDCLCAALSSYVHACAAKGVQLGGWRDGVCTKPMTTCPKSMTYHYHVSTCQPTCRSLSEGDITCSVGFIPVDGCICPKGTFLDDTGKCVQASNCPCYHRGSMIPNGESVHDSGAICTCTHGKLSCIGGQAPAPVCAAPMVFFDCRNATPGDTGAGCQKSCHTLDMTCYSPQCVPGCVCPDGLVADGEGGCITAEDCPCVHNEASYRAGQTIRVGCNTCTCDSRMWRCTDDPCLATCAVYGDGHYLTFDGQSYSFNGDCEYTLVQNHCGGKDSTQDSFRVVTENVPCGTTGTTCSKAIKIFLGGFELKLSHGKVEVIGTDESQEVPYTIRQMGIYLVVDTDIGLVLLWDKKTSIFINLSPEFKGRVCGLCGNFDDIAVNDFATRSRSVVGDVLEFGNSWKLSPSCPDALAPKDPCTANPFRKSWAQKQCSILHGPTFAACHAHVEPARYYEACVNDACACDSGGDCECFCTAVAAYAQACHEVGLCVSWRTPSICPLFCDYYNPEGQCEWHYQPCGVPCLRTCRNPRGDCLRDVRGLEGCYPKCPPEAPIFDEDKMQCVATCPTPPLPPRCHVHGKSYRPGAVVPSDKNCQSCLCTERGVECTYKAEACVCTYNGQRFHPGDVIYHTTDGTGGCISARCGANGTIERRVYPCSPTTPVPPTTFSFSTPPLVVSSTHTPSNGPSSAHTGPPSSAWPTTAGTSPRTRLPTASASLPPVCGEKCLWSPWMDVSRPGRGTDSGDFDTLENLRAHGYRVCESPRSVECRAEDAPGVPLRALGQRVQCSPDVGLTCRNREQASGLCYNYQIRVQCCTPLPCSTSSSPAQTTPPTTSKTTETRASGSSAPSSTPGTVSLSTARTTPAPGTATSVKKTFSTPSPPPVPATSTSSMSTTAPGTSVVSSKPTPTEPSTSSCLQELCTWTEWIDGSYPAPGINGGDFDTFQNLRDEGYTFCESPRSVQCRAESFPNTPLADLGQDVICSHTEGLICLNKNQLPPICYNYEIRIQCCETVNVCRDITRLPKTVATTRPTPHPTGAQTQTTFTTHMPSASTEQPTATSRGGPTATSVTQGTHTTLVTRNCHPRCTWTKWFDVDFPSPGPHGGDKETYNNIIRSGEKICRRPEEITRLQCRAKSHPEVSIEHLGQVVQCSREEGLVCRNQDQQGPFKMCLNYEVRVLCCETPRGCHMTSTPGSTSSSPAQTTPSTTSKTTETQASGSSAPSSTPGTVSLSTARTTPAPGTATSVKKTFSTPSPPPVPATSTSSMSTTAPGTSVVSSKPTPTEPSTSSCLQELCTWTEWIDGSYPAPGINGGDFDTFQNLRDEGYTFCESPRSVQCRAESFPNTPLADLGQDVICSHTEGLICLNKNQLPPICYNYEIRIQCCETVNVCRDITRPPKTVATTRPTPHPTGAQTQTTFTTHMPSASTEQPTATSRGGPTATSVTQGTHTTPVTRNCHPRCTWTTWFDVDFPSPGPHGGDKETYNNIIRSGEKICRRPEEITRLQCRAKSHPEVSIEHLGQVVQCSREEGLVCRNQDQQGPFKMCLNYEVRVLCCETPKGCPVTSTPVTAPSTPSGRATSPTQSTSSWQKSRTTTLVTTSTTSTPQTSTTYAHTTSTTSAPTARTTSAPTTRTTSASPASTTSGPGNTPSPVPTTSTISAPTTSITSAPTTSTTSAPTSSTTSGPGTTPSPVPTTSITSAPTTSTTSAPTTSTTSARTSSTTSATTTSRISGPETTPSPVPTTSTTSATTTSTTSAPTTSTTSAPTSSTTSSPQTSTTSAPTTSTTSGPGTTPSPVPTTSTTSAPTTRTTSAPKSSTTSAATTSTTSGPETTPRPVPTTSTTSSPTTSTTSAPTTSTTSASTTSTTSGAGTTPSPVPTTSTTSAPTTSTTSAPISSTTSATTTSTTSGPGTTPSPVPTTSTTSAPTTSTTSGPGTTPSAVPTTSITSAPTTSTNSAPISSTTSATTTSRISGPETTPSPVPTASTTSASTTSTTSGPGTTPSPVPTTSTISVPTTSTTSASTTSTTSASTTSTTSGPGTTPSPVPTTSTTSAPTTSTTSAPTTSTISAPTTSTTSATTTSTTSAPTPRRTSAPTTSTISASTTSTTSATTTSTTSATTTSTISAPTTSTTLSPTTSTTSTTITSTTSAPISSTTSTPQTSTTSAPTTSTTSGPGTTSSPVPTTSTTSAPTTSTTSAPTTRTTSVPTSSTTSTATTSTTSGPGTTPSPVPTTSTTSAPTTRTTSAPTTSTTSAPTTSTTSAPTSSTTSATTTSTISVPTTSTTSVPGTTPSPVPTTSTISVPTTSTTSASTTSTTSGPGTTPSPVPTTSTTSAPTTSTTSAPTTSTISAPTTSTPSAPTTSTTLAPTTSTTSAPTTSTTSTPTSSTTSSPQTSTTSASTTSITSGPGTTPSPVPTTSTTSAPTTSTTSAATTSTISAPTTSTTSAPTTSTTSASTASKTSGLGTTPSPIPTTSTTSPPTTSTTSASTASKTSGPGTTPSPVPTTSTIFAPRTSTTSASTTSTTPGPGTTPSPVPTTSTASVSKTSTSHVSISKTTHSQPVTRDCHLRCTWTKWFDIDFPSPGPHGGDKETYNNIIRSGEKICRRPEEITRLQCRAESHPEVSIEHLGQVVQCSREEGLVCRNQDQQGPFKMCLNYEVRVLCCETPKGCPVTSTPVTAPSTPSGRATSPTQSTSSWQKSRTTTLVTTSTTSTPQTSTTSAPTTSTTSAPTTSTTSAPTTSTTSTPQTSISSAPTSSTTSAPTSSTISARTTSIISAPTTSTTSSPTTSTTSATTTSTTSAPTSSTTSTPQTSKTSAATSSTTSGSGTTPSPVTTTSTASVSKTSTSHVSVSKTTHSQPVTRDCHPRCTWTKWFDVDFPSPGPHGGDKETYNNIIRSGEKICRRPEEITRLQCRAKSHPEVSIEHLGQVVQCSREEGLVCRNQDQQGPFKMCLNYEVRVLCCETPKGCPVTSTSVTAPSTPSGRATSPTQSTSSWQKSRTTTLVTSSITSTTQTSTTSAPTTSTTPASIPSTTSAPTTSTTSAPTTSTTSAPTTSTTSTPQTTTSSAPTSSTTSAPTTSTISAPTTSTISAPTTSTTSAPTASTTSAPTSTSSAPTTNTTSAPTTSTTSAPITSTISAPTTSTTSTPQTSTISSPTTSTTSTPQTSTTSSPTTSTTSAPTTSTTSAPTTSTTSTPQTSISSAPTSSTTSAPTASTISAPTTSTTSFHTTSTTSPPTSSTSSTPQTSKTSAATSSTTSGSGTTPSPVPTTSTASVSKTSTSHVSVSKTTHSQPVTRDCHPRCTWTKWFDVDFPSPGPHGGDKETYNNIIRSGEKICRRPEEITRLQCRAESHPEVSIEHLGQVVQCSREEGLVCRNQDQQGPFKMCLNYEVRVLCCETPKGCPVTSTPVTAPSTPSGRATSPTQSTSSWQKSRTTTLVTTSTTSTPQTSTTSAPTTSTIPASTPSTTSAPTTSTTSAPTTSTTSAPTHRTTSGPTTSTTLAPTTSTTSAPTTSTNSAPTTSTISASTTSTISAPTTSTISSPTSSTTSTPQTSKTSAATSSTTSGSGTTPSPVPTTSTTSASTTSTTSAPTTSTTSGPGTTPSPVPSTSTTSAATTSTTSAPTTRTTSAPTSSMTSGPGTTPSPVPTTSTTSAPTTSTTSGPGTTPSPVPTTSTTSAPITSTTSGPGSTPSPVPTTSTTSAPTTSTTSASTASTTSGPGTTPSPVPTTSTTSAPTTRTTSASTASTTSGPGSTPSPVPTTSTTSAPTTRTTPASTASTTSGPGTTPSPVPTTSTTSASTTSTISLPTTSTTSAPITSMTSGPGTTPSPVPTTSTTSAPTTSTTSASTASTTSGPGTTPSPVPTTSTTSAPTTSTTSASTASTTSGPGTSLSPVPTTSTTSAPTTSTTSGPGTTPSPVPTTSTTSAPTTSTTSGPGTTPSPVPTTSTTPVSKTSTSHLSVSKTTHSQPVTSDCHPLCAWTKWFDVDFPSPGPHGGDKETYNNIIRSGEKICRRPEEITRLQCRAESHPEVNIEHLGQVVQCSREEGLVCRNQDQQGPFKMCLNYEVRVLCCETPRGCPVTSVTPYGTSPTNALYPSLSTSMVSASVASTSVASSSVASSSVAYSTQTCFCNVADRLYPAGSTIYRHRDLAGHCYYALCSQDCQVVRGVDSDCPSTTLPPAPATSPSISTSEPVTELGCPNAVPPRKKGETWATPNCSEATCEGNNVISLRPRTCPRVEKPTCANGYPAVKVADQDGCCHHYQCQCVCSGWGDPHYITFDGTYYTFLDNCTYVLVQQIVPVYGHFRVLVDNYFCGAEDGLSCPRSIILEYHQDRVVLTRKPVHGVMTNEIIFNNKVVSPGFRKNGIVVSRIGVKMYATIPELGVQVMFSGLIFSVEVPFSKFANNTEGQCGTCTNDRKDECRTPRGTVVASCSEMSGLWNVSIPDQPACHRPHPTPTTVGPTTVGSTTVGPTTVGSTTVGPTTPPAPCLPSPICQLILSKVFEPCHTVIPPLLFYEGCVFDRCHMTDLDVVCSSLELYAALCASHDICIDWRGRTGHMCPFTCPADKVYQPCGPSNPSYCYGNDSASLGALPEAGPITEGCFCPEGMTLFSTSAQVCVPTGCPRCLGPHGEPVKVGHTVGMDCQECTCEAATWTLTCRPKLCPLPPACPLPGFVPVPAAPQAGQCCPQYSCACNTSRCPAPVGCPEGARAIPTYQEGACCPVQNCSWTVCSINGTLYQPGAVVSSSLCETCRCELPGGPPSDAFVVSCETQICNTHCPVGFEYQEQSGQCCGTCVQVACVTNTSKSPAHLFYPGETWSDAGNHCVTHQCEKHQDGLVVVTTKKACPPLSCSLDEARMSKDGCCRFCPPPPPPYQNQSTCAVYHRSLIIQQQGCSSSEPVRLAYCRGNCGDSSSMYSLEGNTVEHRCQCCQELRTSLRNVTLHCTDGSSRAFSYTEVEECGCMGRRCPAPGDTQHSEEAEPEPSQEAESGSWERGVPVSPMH
UniProt Q9HCI7: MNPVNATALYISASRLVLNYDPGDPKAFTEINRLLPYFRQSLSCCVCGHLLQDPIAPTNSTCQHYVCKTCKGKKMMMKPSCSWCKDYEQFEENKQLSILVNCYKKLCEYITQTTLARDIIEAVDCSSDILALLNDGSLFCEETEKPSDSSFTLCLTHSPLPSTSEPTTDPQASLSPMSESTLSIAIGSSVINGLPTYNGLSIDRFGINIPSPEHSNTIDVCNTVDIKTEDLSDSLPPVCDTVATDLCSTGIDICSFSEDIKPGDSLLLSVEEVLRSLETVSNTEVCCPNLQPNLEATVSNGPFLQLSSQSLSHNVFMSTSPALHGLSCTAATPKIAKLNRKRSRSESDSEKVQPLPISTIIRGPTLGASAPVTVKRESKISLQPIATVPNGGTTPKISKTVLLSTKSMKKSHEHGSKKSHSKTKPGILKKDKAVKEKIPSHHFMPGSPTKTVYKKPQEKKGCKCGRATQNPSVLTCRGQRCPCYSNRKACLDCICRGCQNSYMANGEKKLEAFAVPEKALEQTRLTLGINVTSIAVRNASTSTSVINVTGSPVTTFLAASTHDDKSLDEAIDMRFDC

[1] = compound: C/C(=N\NC(=O)C1=CC(=CC=C1)S(=O)(=O)N2CCOCC2)/C3=C(C=CC(=C3)Cl)O
Outline: as §1

[2] = compound: C1=CC(=CC=C1C2=NC3=C(N2)C=C(C=C3)C(=O)N)OC4=CC=C(C=C4)Cl
Outline: as §1

[3] = compound: C1=CC2=C(C=CC(=C2)/C=C\3/C(=O)NC(=NCC4=CC=CS4)S3)N=C1
Outline: as §1

[4] = compound: C1=CC2=NC=CN=C2C=C1/C=C/3\C(=O)NC(=O)S3
Outline: as §1

[5] = compound: C1=CC=C(C=C1)C2=NC(=C(N2)C3=CC=NC=C3)C4=CC(=C(C=C4)Cl)O
Outline: as §1

[6] = compound: C1=CC=C2C(=C1)C3=NNC4=CC=CC(=C43)C2=O
Outline: as §1

[7] = compound: C1CCN(C1)C(=O)NC2=CC=CC(=C2)NC3=NC=C(C(=N3)NCCC4=CN=CN4)Br
Outline: as §1

[8] = compound: C1CN(CCC1(CC2=CC=C(C=C2)Cl)N)C3=NC=NC4=C3C=CN4
Outline: as §1

IRAK-1-4 Inhibitor I = compound: C1COCCN1CCN2C3=CC=CC=C3N=C2NC(=O)C4=CC(=CC=C4)[N+](=O)[O-] [IRAK-1-4 Inhibitor I]
Outline: as §1

ibrutinib = compound: C=CC(=O)N1CCC[C@@H](n2nc(-c3ccc(Oc4ccccc4)cc3)c3c(N)ncnc32)C1 [ibrutinib]
Outline: as §1

[9] = compound: CC(=O)c1cnc2ccc(-c3cc(Cl)c(O)c(Cl)c3)nc2c1N[C@H]1CC[C@H](CN(C)C)CC1
Outline: as §1

ralimetinib = compound: CC(C)(C)Cn1c(N)nc2ccc(-c3[nH]c(C(C)(C)C)nc3-c3ccc(F)cc3)nc21 [ralimetinib]
Outline: as §1

[10] = compound: CC(C)(O)CC(=O)NCCn1ccc2ncnc(Nc3ccc(Oc4cccc(C(F)(F)F)c4)c(Cl)c3)c21
Outline: as §1

[11] = compound: CC(C)C1=C2N=C(C=C(N2N=C1)NCC3=CC=CC=C3)NCCCCCCN
Outline: as §1

[12] = compound: CC1=C(C(CC(=O)N1)C2=CC=C(C=C2)C(F)(F)F)C(=O)NC3=C(C=C4C(=C3)C=NN4)F
Outline: as §1

[13] = compound: CC1=C(C2=C(C=C1)C(=O)C3=CC=CC=C3N2CCCN)C
Outline: as §1

[14] = compound: CC1=C(C=C(C=C1)NC(=O)C2=CC(=CC=C2)C(C)(C)C#N)NC3=CC4=C(C=C3)N=CN(C4=O)C
Outline: as §1

[15] = compound: CC1=C(C=C(C=C1)NC(=O)C2=CC(=CC=C2)N(C)C)NC(=O)C3=CC=C(C=C3)O
Outline: as §1

[16] = compound: CC1=CC=C(C=C1)SC2=C3C=C(SC3=CN=C2)C(=O)N
Outline: as §1

Measured: log2 fold change

MRPL54 (UniProt Q6P161)
inactive: erlotinib 0.014 | [1] 0.034 | [2] 0.035 | [3] -0.026 | [4] -0.024 | [5] 0.001 | [6] 0.024 | [7] 0.004 | [8] 0.007 | IRAK-1-4 Inhibitor I 0.04 | ibrutinib 0.024 | [9] 0.032 | ralimetinib 0.027 | [10] 0.002 | [11] -0.047 | [12] -0.033 | [13] 0.017 | [14] -0.017 | [15] -0.001 | [16] -0.005

MRPS11 (UniProt P82912)
inactive: erlotinib 0.073 | [1] -0.057 | [2] 0.002 | [3] 0.028 | [4] -0.067 | [5] -0.014 | [6] -0.216 | [7] 0.012 | [8] 0.113 | IRAK-1-4 Inhibitor I 0.035 | ibrutinib 0.003 | [9] 0.021 | ralimetinib 0.083 | [10] -0.024 | [11] 0.036 | [12] 0.049 | [13] -0.015 | [14] 0.011 | [15] 0.024 | [16] -0.023

MTREX (UniProt P42285)
inactive: erlotinib -0.02 | [1] -0.012 | [2] -0.008 | [3] -0.002 | [4] 0.001 | [5] 0.008 | [6] -0.013 | [7] -0.025 | [8] -0.014 | IRAK-1-4 Inhibitor I 0 | ibrutinib 0.001 | [9] 0.003 | ralimetinib 0.008 | [10] -0.011 | [11] -0.01 | [12] -0.006 | [13] 0.001 | [14] -0.01 | [15] -0.004 | [16] 0.006

MTPN (UniProt P58546)
inactive: erlotinib -0.006 | [1] 0.018 | [2] -0.024 | [3] 0.023 | [4] -0.006 | [5] -0.034 | [6] -0.074 | [7] 0.003 | [8] 0.032 | IRAK-1-4 Inhibitor I -0.055 | ibrutinib -0.022 | [9] -0.034 | ralimetinib 0 | [10] 0.011 | [11] 0.011 | [12] -0.03 | [13] 0.036 | [14] -0.019 | [15] 0.039 | [16] 0.075

MUC5AC (UniProt P98088)
inactive: [5] 0.015 | IRAK-1-4 Inhibitor I -0.074 | ralimetinib -0.067 | [10] 0.06 | [12] 1.44 | [15] 0.041

Random excerpt: 2 records from the list, in no set order.
MTREX (UniProt P42285)
inactive: erlotinib -0.02 | [1] -0.012 | [2] -0.008 | [3] -0.002 | [4] 0.001 | [5] 0.008 | [6] -0.013 | [7] -0.025 | [8] -0.014 | IRAK-1-4 Inhibitor I 0 | ibrutinib 0.001 | [9] 0.003 | ralimetinib 0.008 | [10] -0.011 | [11] -0.01 | [12] -0.006 | [13] 0.001 | [14] -0.01 | [15] -0.004 | [16] 0.006

MRPS11 (UniProt P82912)
inactive: erlotinib 0.073 | [1] -0.057 | [2] 0.002 | [3] 0.028 | [4] -0.067 | [5] -0.014 | [6] -0.216 | [7] 0.012 | [8] 0.113 | IRAK-1-4 Inhibitor I 0.035 | ibrutinib 0.003 | [9] 0.021 | ralimetinib 0.083 | [10] -0.024 | [11] 0.036 | [12] 0.049 | [13] -0.015 | [14] 0.011 | [15] 0.024 | [16] -0.023

More records

MTPAP (UniProt Q9NVV4)
inactive: erlotinib -0.013 | [1] -0.001 | [2] 0.083 | [3] -0.022 | [5] -0.018 | [6] -0.039 | [7] 0.023 | [8] 0.096 | IRAK-1-4 Inhibitor I -0.047 | [9] 0.044 | ralimetinib -0.003 | [10] 0.036 | [11] 0.04 | [12] 0.085 | [13] 0.031 | [14] 0.002 | [15] 0.014 | [16] 0.023

MRS2 isoform 2 (UniProt Q9HD23)
inactive: [12] 0.07 | [14] 0.088

MSL2 (UniProt Q9HCI7)
inactive: erlotinib -0.026 | [1] -0.128 | [2] 0.196 | [3] -0.022 | [5] 0.086 | [6] 0.04 | [7] 0 | [8] -0.084 | IRAK-1-4 Inhibitor I -0.112 | ralimetinib 0.039 | [10] 0.092 | [11] -0.189 | [12] -0.118 | [14] 0.066 | [15] 0.139

MSH4 (UniProt O15457)
inactive: [1] -0.034 | [3] 0.118 | [5] 0.118 | [6] 0.063 | IRAK-1-4 Inhibitor I 0.151 | ralimetinib -0.005 | [10] 0.123 | [15] -0.194

Reference: the supplement of paper PMC10849652
